Source: PMC9588774
Results are given in words; binding and its absence hold for the method and conditions named. Binding seen in cells or lysates may run through a third protein. Some results given as binding are weak or reduced against the parent protein; the word gives no strength.

T1: full-length CD95 (membrane wild-type CD95) expressed in CEM-IRC cells, P25445
T1 chain: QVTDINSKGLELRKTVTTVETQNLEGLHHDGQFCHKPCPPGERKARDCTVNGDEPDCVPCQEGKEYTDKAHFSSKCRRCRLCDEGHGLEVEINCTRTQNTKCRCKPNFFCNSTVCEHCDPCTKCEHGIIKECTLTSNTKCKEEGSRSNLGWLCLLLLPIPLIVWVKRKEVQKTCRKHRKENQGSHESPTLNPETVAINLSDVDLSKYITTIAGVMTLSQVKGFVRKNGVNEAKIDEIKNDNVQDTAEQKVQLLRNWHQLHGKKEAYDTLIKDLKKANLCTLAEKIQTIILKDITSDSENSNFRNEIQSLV


Target: T1, full-length CD95 (membrane wild-type …)
Experiment: co-IP; CEM-IRC clones treated with 100 ng/ml IgCD95L for the indicated times at 37 °C, lysed in HEPES-Triton X-100 buffer; CD95 DISC immunoprecipitated with APO1-3 and protein A-Sepharose; FADD and caspase-8 by immunoblot
Settings: remark: other sources report otherwise

Binder | binding
Fas-associated death domain (FADD) protein, Q13158 1-208 (protein) MDPFLVLLHSVSSSLSSSELTELKFLCLGRVGKRKLERVQSGLDLFSMLLEQNDLEPGHTELLRELLASLRRHDLLRRVDDFEAGAAAGAAPGEEDLCAAFNVICDNVGKDWRRLARQLKVSDTKIDSIEDRYPRNLTERVRESLRIWKNTEKENATVAHLVGALRSCQMNLVADLVQEVQQARDLQNRSGAMSPMSWNSDASTSEAS | binds
caspase-8, Q14790 1-479 (enzyme) MDFSRNLYDIGEQLDSEDLASLKFLSLDYIPQRKQEPIKDALMLFQRLQEKRMLEESNLSFLKELLFRINRLDLLITYLNTRKEEMERELQTPGRAQISAYRVMLYQISEEVSRSELRSFKFLLQEEISKCKLDDDMNLLDIFIEMEKRVILGEGKLDILKRVCAQINKSLLKIINDYEEFSKERSSSLEGSPDEFSNGEELCGVMTISDSPREQDSESQTLDKVYQMKSKPRGYCLIINNHNFAKAREKVPKLHSIRDRNGTHLDAGALTTTFEELHFEIKPHDDCTVEQIYEILKIYQLMDHSNMDCFICCILSHGDKGIIYGTDGQEAPIYELTSQFTGLKCPSLAGKPKVFFIQACQGDNYQKGIPVETDSEEQPYLEMDLSSPQTRYIPDEADFLLGMATVNNCVSYRNPAEGTWYIQSLCQSLRERCPRGDDILTILTEVNYEVSNKDDKKNMGKQMPQPTFTLRKKLVFPSD | binds
